# According to paper PMC7523692:
# Results are given in words; binding and its absence hold for the method and conditions named. Binding seen in cells or lysates may run through a third protein. Some results given as binding are weak or reduced against the parent protein; the word gives no strength. Tags and fused reporters may be left off the sequences shown.
# B1: Epitope-tagged MEIOB (protein, UniProt Q9D513 1-470)
# chain: MAKFFALKNFTALSDLHPNMANLKIIGIVIGKTDVKGFPDRKNIGSERYTFSFTIRDSPCHFVNVSSWGSEDYIRSLSESFRVAECVIIENPLIQRKDTEREEKFSPATPSNYKLLLSENHSMVKVCSPYEVDTKLLSLIHLPVKESRDYYSLADIVANGHSLDGRIINVLAAVRSVGEPKYFTTSDRRKGQRCEVKLFDETEPSFTMTCWDNESILLAQSWMARETVIFASDVRINFNKFQNCMAATVISKTIITVNPDTPEANILLNYIRENKETNVADEIDSYLKESVNLNTIVDVYTVEQLKVKALKSEGKADPFYGILYAYISTLNIDDETTKVVRNRCSSCGYIVNEASNTCTICNQDSSRLKSFFLSFDVLVDLTDHTGTLHSCSLSGSIAEETLGCTINEFLTMTSEQKTKLKWQLLLERSKIYLKLILSHRARGGLKVTILSCKLADPTEASRNLARQGHT
# Biological target: T1, Epitope-tagged SPATA22 (mouse) (UniProt Q5SV06)
# T1 sequence: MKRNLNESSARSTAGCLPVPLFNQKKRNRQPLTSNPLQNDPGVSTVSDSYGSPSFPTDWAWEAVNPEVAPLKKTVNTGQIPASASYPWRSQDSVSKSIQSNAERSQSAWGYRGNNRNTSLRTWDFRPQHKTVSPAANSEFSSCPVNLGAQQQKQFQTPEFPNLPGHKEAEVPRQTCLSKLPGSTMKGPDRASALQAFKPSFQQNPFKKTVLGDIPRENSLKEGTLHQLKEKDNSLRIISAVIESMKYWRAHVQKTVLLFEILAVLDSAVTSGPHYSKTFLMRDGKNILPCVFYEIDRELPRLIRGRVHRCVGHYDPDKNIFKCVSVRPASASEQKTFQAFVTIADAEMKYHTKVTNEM
# Experiment: co-IP; HEK293 cells transfected separately with MEIOB and SPATA22; lysates incubated with DMSO, VER-49009 or isocotoin (20 uM in the lysate) before mixing and co-immunoprecipitation
binder,measurement,value
B1,binding,binds
